Experimental data: US20230323475A1, “TEST METHOD, OF DIVIDING BLASTIC PLASMACYTOID DENDRITIC CELL NEOPLASM (BPDCN) INTO SUBTYPES” (JAPANESE FOUNDATION FOR CANCER RESEARCH, priority 2016, published 2023)

Tested on: BPDCN cell lines (CAL-1, PMDC05)
Experiment: Cell survival rate of BPDCN cell lines with HDAC and BCL2 family protein inhibitors
Type: cell-based
Conditions: 1 nM to 10000 nM, 48 hours, not associated with presence or absence of MYC expression, FIG. 11
Text: The cell lines used were 4 lines: BPDCN cell lines CAL-1 (MYC^+BPDCN; Non Patent Literature 11; obtained from Nagasaki University) and PMDC05 (MYC-BPDCN; Non Patent Literature 12; obtained from Niigata University), a positive control plasma cell neoplasm KMS12PE (obtained from JCRB Cell Bank) having the increased expression of MYC, and a negative control leukemia cell line K562 (obtained from JCRB Cell Bank) in which no MYC gene rearrangement was seen.
The CAL-1, PMDC05, or KMN12PE cells at 4000 cells/well or K562 at 1000 cells/well were inoculated to 96-well cell culture plates. […] The cell survival rates were measured using a cell growth assay kit using CTG reagent (Cell Titer-Glo, manufactured by Promega Corp.).
Agents effective for the growth suppression of BPDCN cell lines were further studied. The study was conducted on HDAC inhibitors, vorinostat (manufactured by Selleck Chemicals LLC) and panobinostat (manufactured by Selleck Chemicals LLC), and a BCL2 family protein inhibitor, venetoclax (manufactured by LKT Laboratories Inc.). Each inhibitor was added in the concentration of 1 nM to 10000 nM to the 4 cell lines described above. The survival rates of these cells were analyzed 48 hours later (FIG. 11). […] These agents have the possibility of serving as a therapeutic drug for BPDCN, for which the treatment options are limited at present.

In the case of `O=C(CCCCCCC(=O)Nc1ccccc1)NO` [vorinostat], the “inhibitory effect on the BPDCN cell lines (survival rate)” value is reported as “strong inhibitory effect”.
